Data taken from PubChem BioAssay.
The list shows a part of the results. Further columns of the screen follow, without active or inactive calls. For some assays here: Most of these compounds were active or inconclusive in the main read-out, so they are no random draw.

Assays:
PubChem AID 1586 = conditions: yeast two-hybrid polyglutamine protein interaction, reporter readout; measured here: averaged growth delta OD
[1] = enhancers of SMN2 over SMN1 splicing, cell-based, SMN2/SMN1 luciferase reporters (AID 1598); conditions: SMN2 vs SMN1 luciferase splicing reporter cells, at 10 µM; SMN1 luciferase ratio: measured here: SMN1 luciferase reporter average; SMN2 luciferase ratio: measured here: SMN2 luciferase reporter average, stronger effect = higher value
[2] = protection against mutant huntingtin cytotoxicity, PC12 cells, LDH release (AID 1610); conditions: PC12 mutant huntingtin toxicity, final LDH at 4 uM, stronger effect = lower value

## CCCCCCCCNC(C)C(O)c1ccc(SC(C)C)cc1 (configuration not stated)
PubChem AID 1586
  signal change (36 h minus 0 h): 0.159
[1]
  SMN1 luciferase ratio: 0.89
  SMN2 luciferase ratio: 0.9
[2]
  normalised LDH release: 0.794

## CC1(C)O[C@@H]2CC3C4CCC5=CC(=O)CCC5(C)C4(F)C(O)CC3(C)[C@]2(C(=O)CCl)O1 (some centres not stated)
PubChem AID 1586
  signal change (36 h minus 0 h): 0.163
[1]
  SMN1 luciferase ratio: 0.83
  SMN2 luciferase ratio: 0.82
[2]
  normalised LDH release: 0.607

## Cc1nc2sccn2c(=O)c1CCN1CCC(=C(c2ccc(F)cc2)c2ccc(F)cc2)CC1
PubChem AID 1586
  signal change (36 h minus 0 h): 0.0619
[1]
  SMN1 luciferase ratio: 0.85
  SMN2 luciferase ratio: 0.86
[2]
  normalised LDH release: 1.01

## CO[C@@]1(NC(=O)C(C(=O)O)c2ccc(O)cc2)C(=O)N2C(C(=O)O)=C(CSc3nnnn3C)CO[C@@H]21 (some centres not stated)
PubChem AID 1586
  signal change (36 h minus 0 h): 0.172
[1]
  SMN1 luciferase ratio: 1.02
  SMN2 luciferase ratio: 1.06
[2]
  normalised LDH release: 1.13

## CN1CCN(CCCN2c3ccccc3Sc3ccc(C(F)(F)F)cc32)CC1
PubChem AID 1586
  signal change (36 h minus 0 h): 0.122
[1]
  SMN1 luciferase ratio: 0.89
  SMN2 luciferase ratio: 0.93
[2]
  normalised LDH release: 1.11

## Nc1nc2c(ncn2COCCO)c(=O)[nH]1
PubChem AID 1586
  signal change (36 h minus 0 h): 0.141
[1]
  SMN1 luciferase ratio: 0.9
  SMN2 luciferase ratio: 0.95
[2]
  normalised LDH release: 1.07

## CC1=C2C(=CO[C@H](C)[C@H]2C)C(=O)C(C(=O)O)=C1O
PubChem AID 1586
  signal change (36 h minus 0 h): 0.188
[1]
  SMN1 luciferase ratio: 0.95
  SMN2 luciferase ratio: 0.89
[2]
  normalised LDH release: 1

## NS(=O)(=O)c1cc2c(cc1C(F)(F)F)NCNS2(=O)=O
PubChem AID 1586
  signal change (36 h minus 0 h): 0.0886
[1]
  SMN1 luciferase ratio: 0.86
  SMN2 luciferase ratio: 0.79
[2]
  normalised LDH release: 1.4

## N[C@@H]1[C@@H](O)[C@H](O)[C@@H](CO)O[C@H]1O
PubChem AID 1586
  signal change (36 h minus 0 h): 0.0361
[1]
  SMN1 luciferase ratio: 0.94
  SMN2 luciferase ratio: 1.11
[2]
  normalised LDH release: 0.922

## COc1ccc2cc(CCC(C)=O)ccc2c1
PubChem AID 1586
  signal change (36 h minus 0 h): 0.13
[1]
  SMN1 luciferase ratio: 1.39
  SMN2 luciferase ratio: 1.36
[2]
  normalised LDH release: 0.768

## CC(C)NCC(O)COc1cccc2[nH]ccc12 (configuration not stated)
PubChem AID 1586
  signal change (36 h minus 0 h): 0.121
[1]
  SMN1 luciferase ratio: 0.9
  SMN2 luciferase ratio: 0.88
[2]
  normalised LDH release: 0.981

## CC(C(=O)O)c1ccc(-c2ccccc2)c(F)c1 (configuration not stated)
PubChem AID 1586
  signal change (36 h minus 0 h): 0.169
[1]
  SMN1 luciferase ratio: 0.96
  SMN2 luciferase ratio: 0.99
[2]
  normalised LDH release: 1.02

## CC[C@]12CCCN3CCc4c(n(c5ccccc45)[C@](O)(C(=O)OC)C1)[C@@H]32
PubChem AID 1586
  signal change (36 h minus 0 h): 0.184
[1]
  SMN1 luciferase ratio: 0.9
  SMN2 luciferase ratio: 0.82
[2]
  normalised LDH release: 1.08

## S=P(N1CC1)(N1CC1)N1CC1
PubChem AID 1586
  signal change (36 h minus 0 h): 0.0918
[1]
  SMN1 luciferase ratio: 0.7
  SMN2 luciferase ratio: 0.88
[2]
  normalised LDH release: 0.971

## CCN(CCCc1ccccc1)CCCc1ccccc1 (tested in a mixture with another compound)
PubChem AID 1586
  signal change (36 h minus 0 h): 0.113
[1]
  SMN1 luciferase ratio: 0.88
  SMN2 luciferase ratio: 0.87
[2]
  normalised LDH release: 0.573

## CS(=O)(=O)OCCCCOS(C)(=O)=O
PubChem AID 1586
  signal change (36 h minus 0 h): 0.11
[1]
  SMN1 luciferase ratio: 0.85
  SMN2 luciferase ratio: 0.81
[2]
  normalised LDH release: 0.628

## Cc1cccc(C)c1OCC(C)N (configuration not stated)
PubChem AID 1586
  signal change (36 h minus 0 h): 0.0693
[1]
  SMN1 luciferase ratio: 0.94
  SMN2 luciferase ratio: 0.87
[2]
  normalised LDH release: 0.984

## CC(=O)C1CCC2C3CC=C4CC(OS(=O)(=O)O)CC[C@]4(C)C3CC[C@]12C (some centres not stated)
PubChem AID 1586
  signal change (36 h minus 0 h): 0.0867
[1]
  SMN1 luciferase ratio: 0.95
  SMN2 luciferase ratio: 0.96
[2]
  normalised LDH release: 0.693

## C[C@]12CCC(=O)C=C1CCC1C2[C@@H](O)C[C@@]2(C)C1CC[C@]2(O)C(=O)COC(=O)CCC(=O)O (some centres not stated)
PubChem AID 1586
  signal change (36 h minus 0 h): 0.154
[1]
  SMN1 luciferase ratio: 0.88
  SMN2 luciferase ratio: 0.88
[2]
  normalised LDH release: 0.554

## C=Cc1c(C)c2cc3[nH]c(cc4nc(cc5nc(cc1[nH]2)C(C)=C5CCC(=O)O)C(CCC(=O)O)=C4C)c(C)c3C=C
PubChem AID 1586
  signal change (36 h minus 0 h): 0.0938
[1]
  SMN1 luciferase ratio: 0.79
  SMN2 luciferase ratio: 0.77
[2]
  normalised LDH release: 0.612

## CCN(CC)C(C)CN1c2ccccc2Sc2ccccc21 (configuration not stated)
PubChem AID 1586
  signal change (36 h minus 0 h): 0.355
[1]
  SMN1 luciferase ratio: 0.86
  SMN2 luciferase ratio: 0.95
[2]
  normalised LDH release: 0.795

## CN1CCC(=C2c3ccccc3CC(=O)c3sccc32)CC1
PubChem AID 1586
  signal change (36 h minus 0 h): 0.0963
[1]
  SMN1 luciferase ratio: 0.83
  SMN2 luciferase ratio: 0.76
[2]
  normalised LDH release: 1.1

## CO/N=C(/C(=O)NC1C(=O)N2C(C(=O)O)=C(COC(N)=O)CSC12)c1ccco1 (configuration not stated)
PubChem AID 1586
  signal change (36 h minus 0 h): 0.107
[1]
  SMN1 luciferase ratio: 0.91
  SMN2 luciferase ratio: 0.83
[2]
  normalised LDH release: 1
